Paper PMC6986439, “Sultiame pharmacokinetic profile in plasma and erythrocytes after single oral doses: A pilot study in healthy volunteers” (Pharmacology Research & Perspectives, 2020)

Test system: erythrocytes
Experiment: In vitro competition studies with zonisamide and topiramate in whole blood
Type: in vitro ADME, human
Conditions: for capacity to displace sultiame from its erythrocyte binding sites: added at equimolar concentration to 20 mg/L of sultiame
Protocol: In addition, competition studies were performed with two other antiepileptic agents known for their affinity for CA (zonisamide and topiramate), added at equimolar concentration to 20 mg/L of sultiame. Similar ranges of inhibition constants for CA II were reported in the literature for these three substances.13 Samples (1 mL) were drawn before and at 2, 4, 6, 8, 10, 15, 20, 30, 45, 60, and 120 min after addition of the competitor. Sultiame, zonisamide, and topiramate concentrations were then analyzed. All samples were centrifuged at 18 620 g for 1 minutes at 4°C. Plasma, erythrocyte, and urine fractions were stored separately at − 80°C prior to analysis for a maximum of 9 months. For analysis, plasma and hemolyzed erythrocytes samples were subjected to protein precipitation with MeOH containing the internal‐standard sultiame D4 and quantified with the previously described HPLC‐MS/MS method, using matrix‐matched calibration and quality controls. The sultiame concentrations determined in erythrocytes were corrected for the 10% interstitial plasma remnant in the erythrocyte fraction after centrifugation.14

SMILES | capacity to displace sultiame from its erythrocyte binding sites | effect of adding sultiame to a sample enriched with the competitor (translating into an increase in plasma level)
CC1(C)O[C@@H]2[C@@H](CO[C@@]3(COS(N)(=O)=O)OC(C)(C)O[C@@H]23)O1 [topiramate] | limited capacity | 
NS(=O)(=O)Cc1noc2ccccc12 [zonisamide] | limited capacity | clear efflux of zonisamide from erythrocytes
